Patent US7169568B2, “Method for screening molecules that exert a neurotrophic effect through activation of neurotrophin receptors” (New York University, priority 2000, dated 2007)
At least one structure is not confirmed: it was looked up by name or label, or the drawing left a doubt. Where no end group is shown, it is not given here.

Tested on: TrkA receptors
Experiment: TrkA receptor tyrosine phosphorylation in PC12 (615) cells (anti-pan-Trk immunoprecipitation, PY99 anti-phosphotyrosine immunoblot)
Assay type: cell-based
Conditions: ligand for 2 hours, adenosine 10 μM
Description: Stably transfected PC12 cells expressing high levels of TrkA (615) were treated with the indicated compounds for 2 hours. The cells were subsequently harvested in lysis buffer as described in the Materials and Methods of Example 1. Lysates were immunoprecipitated with anti-pan Trk rabbit antiserum. Immunocomplexes were analyzed by immunoblotting with anti-phosphotyrosine antibody (PY99).
In FIG. 2A, different concentrations of adenosine were administered to PC12615 cells for 2 hours or NGF (1 ng/ ml) for 10 min. Cells were also treated with CGS21680 at the indicated dose for 2 hours. In FIG. 2B, PC12 cells (615) were treated with adenosine (10 μM) for various times or with 5 ng/ml NGF for 10 min. Phosphorylated TrkA receptors were detected by immunoblot analysis using PY99 anti-phosphotyrosine antibodies. […]
In FIG. 3A, PC12 cells (615) were treated with the A2A agonist CGS 21680 (10 nM) and an A1 agonist CPA (10 nM) for 2 hr. […] Activation of TrkA was assessed by immunoprecipitation and immunoblot analysis using PY99 anti-phosphotyrosine antibody.
In FIG. 7A, different concentrations of PACAP27 were administered to PC12 (615) cells for 2 hours or NGF (5 ng/ml) for 10 min. […] Phosphorylated TrkA receptors were detected by immunoblot analysis using PY99 anti-phosphotyrosine antibodies. […]
Immunoprotection and Immunoblotting. […] Equivalent amounts of protein were analyzed for each condition. […]

RPPGFSPFR [bradykinin]
Activation of TrkA receptors (tyrosine phosphorylation): not observed
